{"sequences": {"note": "The chains behind the UniProt entries cited, without tags or fusion partners. Where a name states a change or a piece, a line headed by the entry shows the natural chain unless it says otherwise. Residues count along the entry.", "UniProt Q6UVJ0": "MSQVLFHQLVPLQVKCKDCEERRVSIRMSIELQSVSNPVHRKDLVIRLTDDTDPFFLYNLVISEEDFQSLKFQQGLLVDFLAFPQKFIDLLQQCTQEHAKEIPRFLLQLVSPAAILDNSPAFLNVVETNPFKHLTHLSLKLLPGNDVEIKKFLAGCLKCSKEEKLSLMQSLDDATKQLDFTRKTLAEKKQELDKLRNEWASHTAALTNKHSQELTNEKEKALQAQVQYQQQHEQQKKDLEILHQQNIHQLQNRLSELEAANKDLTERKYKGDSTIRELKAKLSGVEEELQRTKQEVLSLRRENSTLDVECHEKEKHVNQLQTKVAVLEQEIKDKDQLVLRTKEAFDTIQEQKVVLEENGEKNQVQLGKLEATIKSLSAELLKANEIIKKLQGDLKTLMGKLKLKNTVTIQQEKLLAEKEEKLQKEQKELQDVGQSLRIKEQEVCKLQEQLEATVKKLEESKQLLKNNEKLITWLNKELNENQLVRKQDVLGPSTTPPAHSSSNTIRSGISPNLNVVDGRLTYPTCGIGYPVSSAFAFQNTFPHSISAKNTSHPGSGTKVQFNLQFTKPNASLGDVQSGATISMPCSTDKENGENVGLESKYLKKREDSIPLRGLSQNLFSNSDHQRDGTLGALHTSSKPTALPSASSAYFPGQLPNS", "UniProt Q96HI0": "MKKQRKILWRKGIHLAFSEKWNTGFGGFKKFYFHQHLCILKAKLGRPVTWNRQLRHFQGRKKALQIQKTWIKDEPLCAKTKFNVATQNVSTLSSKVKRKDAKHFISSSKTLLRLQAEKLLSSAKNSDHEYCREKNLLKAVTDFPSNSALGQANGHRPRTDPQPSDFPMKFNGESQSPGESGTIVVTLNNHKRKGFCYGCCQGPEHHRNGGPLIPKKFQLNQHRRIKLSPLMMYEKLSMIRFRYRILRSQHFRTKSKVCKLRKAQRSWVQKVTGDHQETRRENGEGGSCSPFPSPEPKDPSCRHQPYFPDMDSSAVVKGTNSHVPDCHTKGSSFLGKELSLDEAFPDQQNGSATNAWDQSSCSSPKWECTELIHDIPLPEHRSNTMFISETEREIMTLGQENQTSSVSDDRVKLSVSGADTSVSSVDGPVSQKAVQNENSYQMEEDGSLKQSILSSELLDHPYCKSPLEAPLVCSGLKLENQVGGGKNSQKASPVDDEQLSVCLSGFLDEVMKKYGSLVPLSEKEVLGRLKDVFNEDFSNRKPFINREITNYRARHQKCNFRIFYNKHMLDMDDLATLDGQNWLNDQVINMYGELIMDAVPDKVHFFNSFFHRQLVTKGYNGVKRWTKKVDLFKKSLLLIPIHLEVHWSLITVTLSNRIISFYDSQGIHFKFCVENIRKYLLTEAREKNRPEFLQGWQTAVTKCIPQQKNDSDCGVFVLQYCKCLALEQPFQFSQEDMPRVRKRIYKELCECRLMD", "UniProt Q15437": "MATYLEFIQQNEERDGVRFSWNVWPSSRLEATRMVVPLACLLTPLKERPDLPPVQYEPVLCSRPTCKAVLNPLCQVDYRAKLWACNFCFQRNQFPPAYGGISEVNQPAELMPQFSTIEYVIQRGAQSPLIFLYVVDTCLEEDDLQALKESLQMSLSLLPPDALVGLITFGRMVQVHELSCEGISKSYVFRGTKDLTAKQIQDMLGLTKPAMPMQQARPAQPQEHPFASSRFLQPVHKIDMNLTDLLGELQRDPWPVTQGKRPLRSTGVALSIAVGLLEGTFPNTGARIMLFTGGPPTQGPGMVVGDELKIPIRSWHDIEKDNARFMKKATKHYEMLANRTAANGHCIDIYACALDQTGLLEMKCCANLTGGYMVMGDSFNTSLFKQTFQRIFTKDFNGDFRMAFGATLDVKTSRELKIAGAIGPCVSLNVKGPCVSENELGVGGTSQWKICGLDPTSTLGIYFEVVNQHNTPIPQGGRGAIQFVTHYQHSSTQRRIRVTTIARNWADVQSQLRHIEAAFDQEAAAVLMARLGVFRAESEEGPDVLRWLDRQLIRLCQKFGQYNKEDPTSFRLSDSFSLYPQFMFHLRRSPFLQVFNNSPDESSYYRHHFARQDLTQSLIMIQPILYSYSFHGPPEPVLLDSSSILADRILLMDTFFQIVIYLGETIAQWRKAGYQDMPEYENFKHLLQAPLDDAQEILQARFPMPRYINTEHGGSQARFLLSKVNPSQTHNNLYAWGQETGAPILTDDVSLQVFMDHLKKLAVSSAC", "UniProt Q9Y3A5": "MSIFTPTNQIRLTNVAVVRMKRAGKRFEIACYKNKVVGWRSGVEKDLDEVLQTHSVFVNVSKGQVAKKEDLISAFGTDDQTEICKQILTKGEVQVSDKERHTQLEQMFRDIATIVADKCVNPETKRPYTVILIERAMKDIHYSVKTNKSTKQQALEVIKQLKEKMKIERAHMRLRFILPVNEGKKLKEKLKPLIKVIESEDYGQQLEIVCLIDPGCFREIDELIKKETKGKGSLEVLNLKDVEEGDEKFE", "UniProt Q9UPW6": "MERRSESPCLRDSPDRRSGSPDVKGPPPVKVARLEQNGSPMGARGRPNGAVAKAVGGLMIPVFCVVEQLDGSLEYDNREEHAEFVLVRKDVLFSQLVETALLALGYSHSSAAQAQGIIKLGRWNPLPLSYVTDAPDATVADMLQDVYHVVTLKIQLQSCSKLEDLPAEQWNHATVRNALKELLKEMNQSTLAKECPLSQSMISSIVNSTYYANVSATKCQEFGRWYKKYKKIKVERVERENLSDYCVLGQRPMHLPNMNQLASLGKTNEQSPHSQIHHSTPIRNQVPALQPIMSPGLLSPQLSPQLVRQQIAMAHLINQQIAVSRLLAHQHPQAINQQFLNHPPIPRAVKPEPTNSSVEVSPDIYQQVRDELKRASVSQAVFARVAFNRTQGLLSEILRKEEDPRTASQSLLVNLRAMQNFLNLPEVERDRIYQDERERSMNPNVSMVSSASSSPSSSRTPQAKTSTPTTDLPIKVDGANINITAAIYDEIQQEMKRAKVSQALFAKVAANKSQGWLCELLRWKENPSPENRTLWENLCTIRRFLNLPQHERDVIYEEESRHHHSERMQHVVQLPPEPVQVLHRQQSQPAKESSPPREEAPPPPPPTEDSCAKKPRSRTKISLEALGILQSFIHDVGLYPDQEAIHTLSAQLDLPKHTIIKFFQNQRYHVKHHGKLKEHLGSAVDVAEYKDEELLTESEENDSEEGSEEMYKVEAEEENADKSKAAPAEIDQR", "UniProt Q15393": "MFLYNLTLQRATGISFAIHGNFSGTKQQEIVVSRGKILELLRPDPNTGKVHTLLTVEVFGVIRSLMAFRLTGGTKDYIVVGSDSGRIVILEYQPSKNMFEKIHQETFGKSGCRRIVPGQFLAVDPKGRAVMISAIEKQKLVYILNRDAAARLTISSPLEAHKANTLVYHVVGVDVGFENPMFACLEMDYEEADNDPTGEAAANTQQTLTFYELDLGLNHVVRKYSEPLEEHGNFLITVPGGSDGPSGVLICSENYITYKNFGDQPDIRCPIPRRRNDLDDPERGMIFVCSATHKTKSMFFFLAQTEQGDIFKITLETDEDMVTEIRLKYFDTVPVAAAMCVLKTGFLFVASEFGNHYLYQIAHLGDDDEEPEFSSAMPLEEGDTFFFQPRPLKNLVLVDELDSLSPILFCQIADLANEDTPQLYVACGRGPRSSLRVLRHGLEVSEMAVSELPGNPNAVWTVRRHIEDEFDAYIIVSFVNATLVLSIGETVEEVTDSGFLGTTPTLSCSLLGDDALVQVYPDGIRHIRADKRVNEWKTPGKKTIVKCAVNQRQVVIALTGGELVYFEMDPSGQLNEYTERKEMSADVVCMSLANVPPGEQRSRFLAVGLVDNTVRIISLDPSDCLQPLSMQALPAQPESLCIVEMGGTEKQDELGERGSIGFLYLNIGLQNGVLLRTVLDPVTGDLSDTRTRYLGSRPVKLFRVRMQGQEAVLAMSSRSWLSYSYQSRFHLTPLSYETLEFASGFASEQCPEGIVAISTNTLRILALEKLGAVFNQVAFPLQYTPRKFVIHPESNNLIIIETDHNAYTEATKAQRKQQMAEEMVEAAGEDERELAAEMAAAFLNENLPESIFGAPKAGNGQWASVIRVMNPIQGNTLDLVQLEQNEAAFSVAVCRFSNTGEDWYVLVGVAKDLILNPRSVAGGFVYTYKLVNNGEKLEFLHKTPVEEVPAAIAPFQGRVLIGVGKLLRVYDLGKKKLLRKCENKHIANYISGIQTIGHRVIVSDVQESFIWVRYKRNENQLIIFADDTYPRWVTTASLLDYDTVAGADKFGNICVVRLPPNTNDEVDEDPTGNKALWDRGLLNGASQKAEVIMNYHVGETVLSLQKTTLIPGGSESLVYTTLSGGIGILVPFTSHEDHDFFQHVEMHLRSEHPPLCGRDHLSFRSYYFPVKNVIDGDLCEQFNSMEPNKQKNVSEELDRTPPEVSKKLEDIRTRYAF", "UniProt Q8WU76": "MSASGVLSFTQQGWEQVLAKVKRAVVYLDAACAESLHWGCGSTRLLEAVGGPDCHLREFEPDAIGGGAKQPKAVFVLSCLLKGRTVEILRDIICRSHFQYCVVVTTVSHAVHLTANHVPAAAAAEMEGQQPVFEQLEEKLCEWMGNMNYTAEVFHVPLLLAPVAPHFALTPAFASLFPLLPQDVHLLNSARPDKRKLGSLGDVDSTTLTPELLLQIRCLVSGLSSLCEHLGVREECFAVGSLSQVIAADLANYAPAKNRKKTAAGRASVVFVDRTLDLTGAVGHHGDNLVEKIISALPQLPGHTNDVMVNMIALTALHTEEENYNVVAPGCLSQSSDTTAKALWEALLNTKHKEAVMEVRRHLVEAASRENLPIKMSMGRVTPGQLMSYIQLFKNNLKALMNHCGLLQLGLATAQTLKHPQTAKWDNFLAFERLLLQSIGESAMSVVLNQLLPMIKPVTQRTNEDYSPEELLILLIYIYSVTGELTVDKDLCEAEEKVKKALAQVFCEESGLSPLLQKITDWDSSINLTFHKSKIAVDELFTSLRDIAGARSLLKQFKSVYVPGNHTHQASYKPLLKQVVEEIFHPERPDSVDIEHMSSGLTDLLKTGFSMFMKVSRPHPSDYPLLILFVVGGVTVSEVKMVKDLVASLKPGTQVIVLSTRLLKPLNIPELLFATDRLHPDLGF", "UniProt P29353": "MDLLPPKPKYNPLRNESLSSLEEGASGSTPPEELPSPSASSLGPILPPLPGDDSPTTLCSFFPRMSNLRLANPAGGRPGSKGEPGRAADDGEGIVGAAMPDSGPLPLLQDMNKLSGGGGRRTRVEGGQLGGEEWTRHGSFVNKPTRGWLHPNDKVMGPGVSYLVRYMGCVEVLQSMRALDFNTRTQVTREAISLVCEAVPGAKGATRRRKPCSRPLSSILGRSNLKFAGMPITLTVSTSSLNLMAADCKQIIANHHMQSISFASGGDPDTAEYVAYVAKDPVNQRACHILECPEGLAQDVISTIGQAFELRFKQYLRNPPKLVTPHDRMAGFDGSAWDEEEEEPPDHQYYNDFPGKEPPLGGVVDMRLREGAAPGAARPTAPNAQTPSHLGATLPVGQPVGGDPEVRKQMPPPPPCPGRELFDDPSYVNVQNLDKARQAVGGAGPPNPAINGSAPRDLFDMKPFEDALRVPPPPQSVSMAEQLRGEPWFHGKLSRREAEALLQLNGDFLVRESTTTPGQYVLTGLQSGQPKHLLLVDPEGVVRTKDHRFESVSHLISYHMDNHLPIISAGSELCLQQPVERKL", "UniProt Q8WTS6, 196-215": "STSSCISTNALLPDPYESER", "UniProt Q6SZW1": "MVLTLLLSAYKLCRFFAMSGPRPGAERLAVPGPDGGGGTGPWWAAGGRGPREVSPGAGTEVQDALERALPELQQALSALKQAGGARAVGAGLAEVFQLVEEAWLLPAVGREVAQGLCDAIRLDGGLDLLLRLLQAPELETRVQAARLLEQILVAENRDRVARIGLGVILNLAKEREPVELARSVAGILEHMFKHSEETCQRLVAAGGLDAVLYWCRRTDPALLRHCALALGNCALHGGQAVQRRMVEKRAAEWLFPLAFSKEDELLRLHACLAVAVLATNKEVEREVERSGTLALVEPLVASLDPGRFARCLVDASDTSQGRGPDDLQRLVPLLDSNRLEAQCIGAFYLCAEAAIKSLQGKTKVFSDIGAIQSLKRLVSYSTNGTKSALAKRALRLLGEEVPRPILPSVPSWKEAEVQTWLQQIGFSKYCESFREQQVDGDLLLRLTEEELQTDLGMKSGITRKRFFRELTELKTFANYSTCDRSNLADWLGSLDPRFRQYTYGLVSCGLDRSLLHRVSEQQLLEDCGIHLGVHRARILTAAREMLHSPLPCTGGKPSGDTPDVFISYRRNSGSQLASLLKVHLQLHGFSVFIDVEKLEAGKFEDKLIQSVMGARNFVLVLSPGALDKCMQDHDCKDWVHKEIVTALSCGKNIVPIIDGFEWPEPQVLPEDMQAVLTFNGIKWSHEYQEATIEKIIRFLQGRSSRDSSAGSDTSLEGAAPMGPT"}, "source": "the supplement of paper PMC11732987", "about": "“Enantioselective OTUD7B fragment discovery through chemoproteomics screening and high-throughput optimisation” (Communications Chemistry, 2025)", "note": "The other results are listed elsewhere or left out. The data scatter; read single values as rough.", "data": [{"compound": "ClCC(=O)N[C@H]1CCCc2ccccc12", "assay": "log2 mean competition ratio of IA-DTB cysteine labelling (DMSO/compound) (log2 ratio); higher = stronger cysteine engagement by compound", "details": "50 µM; treatment time: 4 h; cell line lysate: HEK293T", "description": "(§1)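 IA-DTB competitive cysteine chemoproteomics in HEK293T RIPA lysate. Lysates were treated with compound 29 or 30 at 50 or 200 µM for 4 h, then IA-DTB (500 µM, 1 h), trypsin-digested, NeutrAvidin-enriched and analysed by diaPASEF. Competition ratio = intensity DMSO / intensity compound (n=4 treated, n=64 DMSO); binding: mean log2 CR ≥ 1 and p ≤ 0.05 plus QC filters. Target is the cysteine site.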", "values": [{"target": "SETX C2006 (UniProt Q7Z333)", "log2 mean competition ratio": 0.0297}, {"target": "SAFB2 C672", "log2 mean competition ratio": 0.0784}, {"target": "SFMBT1 C511", "log2 mean competition ratio": 0.0626}, {"target": "SEPTIN2 C111", "log2 mean competition ratio": -0.0189}, {"target": "SASS6 C94 (UniProt Q6UVJ0)", "log2 mean competition ratio": -0.789}, {"target": "SENP5 C288 (UniProt Q96HI0)", "log2 mean competition ratio": -0.552}, {"target": "SGPP1 C27 (UniProt Q9BX95)", "log2 mean competition ratio": 0.121}, {"target": "SEC23B C434 (UniProt Q15437)", "log2 mean competition ratio": -0.635}, {"target": "SBDS C31 (UniProt Q9Y3A5)", "log2 mean competition ratio": 0.0912}, {"target": "SDAD1 C87 (UniProt Q9NVU7)", "log2 mean competition ratio": -0.615}, {"target": "SATB2 C159 (UniProt Q9UPW6)", "log2 mean competition ratio": 0.388}, {"target": "SAMD1 C383 (UniProt Q6SPF0)", "log2 mean competition ratio": 0.132}, {"target": "SF3B3 C1156 (UniProt Q15393)", "log2 mean competition ratio": 0.137}, {"target": "SCFD2 C54 (UniProt Q8WU76)", "log2 mean competition ratio": 0.155}, {"target": "SHC1 C196 (UniProt P29353)", "log2 mean competition ratio": -0.16}, {"target": "SETD7 C200 (UniProt Q8WTS6)", "log2 mean competition ratio": 0.605}, {"target": "SHMT1 C68", "log2 mean competition ratio": -0.134}, {"target": "SARM1 C311 (UniProt Q6SZW1)", "log2 mean competition ratio": 0.204}, {"target": "SANBR C478", "log2 mean competition ratio": 0.254}, {"target": "SF3B3 C1054 (UniProt Q15393)", "log2 mean competition ratio": 0.0788}]}, {"compound": "ClCC(=O)N[C@H]1CCCc2ccccc12", "assay": "log2 mean competition ratio of IA-DTB cysteine labelling (DMSO/compound) (log2 ratio); higher = stronger cysteine engagement by compound", "details": "200 µM; treatment time: 4 h; cell line lysate: HEK293T", "description": "as §1", "values": [{"target": "SETX C2006 (UniProt Q7Z333)", "log2 mean competition ratio": 0.206}, {"target": "SAFB2 C672", "log2 mean competition ratio": 0.0977}, {"target": "SFMBT1 C511", "log2 mean competition ratio": 0.113}, {"target": "SEPTIN2 C111", "log2 mean competition ratio": 0.142}, {"target": "SASS6 C94 (UniProt Q6UVJ0)", "log2 mean competition ratio": -0.111}, {"target": "SENP5 C288 (UniProt Q96HI0)", "log2 mean competition ratio": -0.000517}, {"target": "SGPP1 C27 (UniProt Q9BX95)", "log2 mean competition ratio": 0.0519}, {"target": "SEC23B C434 (UniProt Q15437)", "log2 mean competition ratio": -0.133}, {"target": "SBDS C31 (UniProt Q9Y3A5)", "log2 mean competition ratio": -0.149}, {"target": "SDAD1 C87 (UniProt Q9NVU7)", "log2 mean competition ratio": -0.0785}, {"target": "SATB2 C159 (UniProt Q9UPW6)", "log2 mean competition ratio": -0.146}, {"target": "SAMD1 C383 (UniProt Q6SPF0)", "log2 mean competition ratio": 0.0386}, {"target": "SF3B3 C1156 (UniProt Q15393)", "log2 mean competition ratio": -0.288}, {"target": "SCFD2 C54 (UniProt Q8WU76)", "log2 mean competition ratio": -0.0203}, {"target": "SHC1 C196 (UniProt P29353)", "log2 mean competition ratio": -0.00881}, {"target": "SETD7 C200 (UniProt Q8WTS6)", "log2 mean competition ratio": -0.384}, {"target": "SHMT1 C68", "log2 mean competition ratio": -0.166}, {"target": "SARM1 C311 (UniProt Q6SZW1)", "log2 mean competition ratio": 0.279}, {"target": "SANBR C478", "log2 mean competition ratio": 0.253}, {"target": "SF3B3 C1054 (UniProt Q15393)", "log2 mean competition ratio": -0.362}]}]}
